From publication PMC6932820
Results are given in words; binding and its absence hold for the method and conditions named. In cells and extracts the contact can be indirect. Some results given as binding are weak or reduced against the parent protein; the word gives no strength.

The chains behind the UniProt entries cited, without tags or fusion partners.
UniProt Q9QR71: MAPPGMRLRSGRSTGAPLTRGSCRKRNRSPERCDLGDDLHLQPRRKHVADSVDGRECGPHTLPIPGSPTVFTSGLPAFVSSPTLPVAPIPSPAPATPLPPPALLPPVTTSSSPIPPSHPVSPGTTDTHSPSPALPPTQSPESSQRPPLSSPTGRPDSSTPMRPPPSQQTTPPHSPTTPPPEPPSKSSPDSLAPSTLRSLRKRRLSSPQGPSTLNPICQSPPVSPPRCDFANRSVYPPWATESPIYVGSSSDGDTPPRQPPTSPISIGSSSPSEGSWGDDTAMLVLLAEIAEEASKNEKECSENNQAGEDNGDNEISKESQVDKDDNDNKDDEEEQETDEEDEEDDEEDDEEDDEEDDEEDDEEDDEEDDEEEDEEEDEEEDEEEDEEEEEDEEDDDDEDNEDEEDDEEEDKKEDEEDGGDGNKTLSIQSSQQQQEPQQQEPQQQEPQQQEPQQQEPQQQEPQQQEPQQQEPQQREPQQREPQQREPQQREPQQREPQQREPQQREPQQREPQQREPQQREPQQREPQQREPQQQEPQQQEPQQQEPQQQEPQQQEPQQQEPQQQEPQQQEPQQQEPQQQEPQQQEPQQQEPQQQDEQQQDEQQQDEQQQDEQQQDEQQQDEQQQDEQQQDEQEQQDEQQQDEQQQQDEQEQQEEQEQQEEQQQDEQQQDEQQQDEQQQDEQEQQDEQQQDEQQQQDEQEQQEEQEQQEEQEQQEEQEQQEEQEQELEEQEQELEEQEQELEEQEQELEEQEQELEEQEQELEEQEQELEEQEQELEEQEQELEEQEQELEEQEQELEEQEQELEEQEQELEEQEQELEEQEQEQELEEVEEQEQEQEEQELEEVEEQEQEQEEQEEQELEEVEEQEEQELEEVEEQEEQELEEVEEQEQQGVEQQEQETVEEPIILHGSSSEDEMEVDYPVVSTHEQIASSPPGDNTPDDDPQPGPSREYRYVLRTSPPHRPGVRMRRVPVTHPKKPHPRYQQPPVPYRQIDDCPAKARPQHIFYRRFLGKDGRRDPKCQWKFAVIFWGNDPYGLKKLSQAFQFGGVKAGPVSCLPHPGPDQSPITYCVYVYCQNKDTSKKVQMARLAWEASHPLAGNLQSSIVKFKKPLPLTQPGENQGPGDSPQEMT
UniProt P61956: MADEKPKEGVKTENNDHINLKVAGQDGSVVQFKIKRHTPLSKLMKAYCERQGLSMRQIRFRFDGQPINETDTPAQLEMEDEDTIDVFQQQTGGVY
UniProt Q13263: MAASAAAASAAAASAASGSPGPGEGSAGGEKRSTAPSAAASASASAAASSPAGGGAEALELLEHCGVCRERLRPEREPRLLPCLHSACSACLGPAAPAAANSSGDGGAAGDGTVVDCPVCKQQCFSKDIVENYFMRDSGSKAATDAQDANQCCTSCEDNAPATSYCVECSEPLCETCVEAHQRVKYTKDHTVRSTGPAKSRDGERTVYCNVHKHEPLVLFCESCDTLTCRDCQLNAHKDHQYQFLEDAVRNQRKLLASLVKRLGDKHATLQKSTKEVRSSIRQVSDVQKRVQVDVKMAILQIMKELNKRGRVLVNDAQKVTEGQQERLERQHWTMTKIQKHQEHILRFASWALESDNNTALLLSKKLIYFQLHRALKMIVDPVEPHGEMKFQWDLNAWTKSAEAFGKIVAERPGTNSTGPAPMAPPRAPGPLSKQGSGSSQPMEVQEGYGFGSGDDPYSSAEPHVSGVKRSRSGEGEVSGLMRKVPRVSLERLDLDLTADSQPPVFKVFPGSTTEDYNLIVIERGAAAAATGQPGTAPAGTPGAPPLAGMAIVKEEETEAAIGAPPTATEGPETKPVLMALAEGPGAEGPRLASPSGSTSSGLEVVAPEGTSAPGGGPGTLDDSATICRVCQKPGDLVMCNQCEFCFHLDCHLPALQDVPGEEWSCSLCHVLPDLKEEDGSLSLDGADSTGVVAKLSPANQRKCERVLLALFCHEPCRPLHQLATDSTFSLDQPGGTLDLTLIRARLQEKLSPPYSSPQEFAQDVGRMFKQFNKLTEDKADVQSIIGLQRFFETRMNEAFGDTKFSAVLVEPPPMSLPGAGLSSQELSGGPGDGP

Experiments:
[1] = biological target: endogenous LANA in PEL cells (Kaposi's sarcoma-associated herpesvirus (KSHV) (endogenous in BCP1)) (UniProt Q9QR71); experiment: co-IP; endogenous proteins in BCP1 (PEL) cells, untreated or treated with DMSO or Cambogin (100, 500 nM) for 48 h; IP and immunoblot with the indicated antibodies
[2] = biological target: myc-tagged LANA (Kaposi's sarcoma-associated herpesvirus (KSHV)) (UniProt Q9QR71); experiment: co-IP; HEK293 cells transfected with LANA-myc and FLAG-SUMO2, untreated or treated with DMSO, Cambogin or Garcimultiflorone H (100 nM); RIPA lysates with NEM; IP and immunoblot with the indicated antibodies
FLAG-tagged SUMO2 = FLAG-tagged SUMO2 (UniProt P61956); experiment: as above

Row | Substance | binding [1] | binding [2] | binding (FLAG-tagged SUMO2)
1 | endogenous SUMO2 in PEL cells (from UniProt P61956 1-95) | binds | – | –
2 | FLAG-tagged SUMO2 (from UniProt P61956 1-95) | – | binds | –
3 | KAP1 (from UniProt Q13263 1-835) | – | binds | binds
